Reference: PubChem BioAssay AID493014 (National Center for Advancing Translational Sciences (NCATS), 2011)
Hit rate of the full screen: of about 340,000 compounds, about 170 (0.05%) were called active. The inconclusive results got no clear call from the source; some entries with a clear call stand among them for comparison. Calls come from the whole dose curve; as a rule, active = well fitted inhibition curve with a large enough effect in the signal ratio, with a control signal flat (not every such curve was filed as active); inconclusive = small, poorly fitted or top-dose-only effect, or effect the other way, or a change in a side signal; inactive = flat fitted curve, though single readings scatter; the % refers to the signal ratio. Potencies of inconclusive entries are doubtful fits and often do not repeat.

Test: qHTS Assay to Find Inhibitors of Chronic Active B-Cell Receptor Signaling;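 for activity change, negative = inhibition: plate controls were basal doxycycline-induced cells for no effect and cells given 10 µM MG132 for full effect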
Conditions: ABC-DLBCL IkBa-CBG/CBR reporter, luminescence ratio (green luciferase fused to IkBa over red control in TMD8 lymphoma cells), 4 h; activity change, negative = inhibition: at 46.1 µM (top of the series)
Summary of the method: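 Compounds up to 46 uM were incubated four hours with TMD8 cells whose green CBG68 luciferase is fused to IkappaBalpha; red CBR luminescence normalised the signal, and concentration-effect curves were fitted to fusion, red and ratio data.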
Potency is the fitted concentration of half-maximal effect.

| SMILES | activity change, negative = inhibition | Potency |
| --- | --- | --- |
| CS(=O)(=O)c1ccc(-c2nn[nH]n2)cc1 | inconclusive: 4.71% |  |
| Cc1ccccc1-c1noc(C2CCCCC2)n1 |  | inconclusive: 13 µM [rising, partial curve, poor fit] |
| COc1ccc(NC(=O)CSc2nncs2)cc1S(N)(=O)=O | inconclusive: -47.1% |  |
| COc1cc2c(cc1OC)C1(Nc3c-2c(-c2ccccc2)nn3-c2ccccc2)C(=O)Nc2ccccc21 (stereo not given) | inactive |  |
| CC(C)c1cc(=O)n2[nH]c(SCc3ccccc3Cl)nc2n1 |  | inconclusive: 31.6 µM [falling, partial curve] |
| Cc1ccccc1CN1CCC(n2nccc2NC(=O)c2ccc3c(c2)OCO3)CC1 | inconclusive: 180% |  |
| O=C(C[n+]1ccc(/C=C/c2ccccc2)cc1)c1ccc2c(c1)OCCO2 |  | inconclusive: 12.6 µM [falling, single point] |
| OC1(CNCc2cn[nH]c2-c2cc3ccccc3o2)CCCCC1 | inactive |  |
| Cc1nnc2sc(SCC(=O)Nc3ccc(Br)cc3)nn2c1=O |  | inconclusive: 0.447 µM [rising, full curve, poor fit] |
| CCc1ccc(OCC2c3cc(OC)c(OC)cc3CCN2C(=S)NCCOC)cc1 (stereo not given) | inactive |  |
| Cc1nc2ncccn2c1-c1csc(Nc2ccccc2)n1 | inconclusive: -20.4% |  |
| O=C(Nc1ccc(N2CCOCC2)c(Cl)c1)c1cccc(F)c1 |  | inconclusive: 29.1 µM [falling, single point] |
| Clc1ccc2oc(-c3ccccc3)nc2c1 |  | inconclusive: 1.03 µM [rising, full curve, poor fit] |
| N#CC1=C(N)NC(=S)C(C(N)=O)C1c1ccccc1F (stereo not given) | inconclusive: -1.73% |  |
| COc1ccc(NC(=O)c2cc(S(=O)(=O)N3CCCCC3)ccc2N2CCCCC2)cn1 | inconclusive: 0.0995% |  |
| O=C(NCCC1=CCCCC1)C(=O)c1c[nH]c2ccccc12 |  | inconclusive: 29.1 µM [falling, single point] |
| Cn1cc(CN2CCC(C(=O)Nc3cccc(-c4cccc(F)c4)c3)CC2)cn1 | inconclusive: 0.205% |  |
| C=CCOC(=O)C1=C(C)NC(SCC(=O)Nc2nccs2)=C(C#N)C1c1cccs1 (stereo not given) | inconclusive: 0.616% |  |
| COc1ccccc1C(CNc1ccc(S(=O)(=O)N2CCCC2)cc1[N+](=O)[O-])N(C)C (stereo not given) | inconclusive: 3.45% |  |
| Cc1cc(C)c(C#N)c(SCc2ccccc2[N+](=O)[O-])n1 | inconclusive: 0.39% |  |
| Cc1ccc(C=Nc2ccccc2C(N)=O)cc1 | inconclusive: -19.2% |  |
| Cc1nn(-c2ccccc2)c(Cl)c1/C=N/NC(=O)c1[nH]ncc1Br |  | inconclusive: 15.8 µM [falling, partial curve] |
| O=C(CN1CC[n+]2c(-c3cccs3)csc21)c1ccc(-c2ccccc2)cc1 | inconclusive: -20% |  |
| Cc1ccc(-n2cnc3cc(C(=O)NCc4ccc(F)cc4)ccc32)c(C)c1 | inconclusive: 1.18% |  |
| COc1ccc(OC)c(NC(=O)COC(=O)CCCN=C2NS(=O)(=O)c3ccccc32)c1 |  | inconclusive: 18.4 µM [falling, partial curve, poor fit] |
| O=C(N/N=C/c1ccco1)c1ccn[nH]1 |  | inconclusive: 12.6 µM [falling, single point] |
| Cc1ccc(NC(=O)NNC(=O)Cn2nc(-c3ccccc3)c(-c3ccccc3)c(C#N)c2=O)cc1 | inconclusive: -7.51% |  |

Arranged by SMILES length (low to high): 18 of the compounds above

| SMILES | activity change, negative = inhibition | Potency |
| --- | --- | --- |
| Clc1ccc2oc(-c3ccccc3)nc2c1 |  | inconclusive: 1.03 µM [rising, full curve, poor fit] |
| O=C(N/N=C/c1ccco1)c1ccn[nH]1 |  | inconclusive: 12.6 µM [falling, single point] |
| CS(=O)(=O)c1ccc(-c2nn[nH]n2)cc1 | inconclusive: 4.71% |  |
| Cc1nc2ncccn2c1-c1csc(Nc2ccccc2)n1 | inconclusive: -20.4% |  |
| N#CC1=C(N)NC(=S)C(C(N)=O)C1c1ccccc1F (stereo not given) | inconclusive: -1.73% |  |
| COc1ccc(NC(=O)CSc2nncs2)cc1S(N)(=O)=O | inconclusive: -47.1% |  |
| O=C(NCCC1=CCCCC1)C(=O)c1c[nH]c2ccccc12 |  | inconclusive: 29.1 µM [falling, single point] |
| O=C(Nc1ccc(N2CCOCC2)c(Cl)c1)c1cccc(F)c1 |  | inconclusive: 29.1 µM [falling, single point] |
| Cc1cc(C)c(C#N)c(SCc2ccccc2[N+](=O)[O-])n1 | inconclusive: 0.39% |  |
| Cc1nn(-c2ccccc2)c(Cl)c1/C=N/NC(=O)c1[nH]ncc1Br |  | inconclusive: 15.8 µM [falling, partial curve] |
| Cc1ccccc1CN1CCC(n2nccc2NC(=O)c2ccc3c(c2)OCO3)CC1 | inconclusive: 180% |  |
| Cn1cc(CN2CCC(C(=O)Nc3cccc(-c4cccc(F)c4)c3)CC2)cn1 | inconclusive: 0.205% |  |
| O=C(CN1CC[n+]2c(-c3cccs3)csc21)c1ccc(-c2ccccc2)cc1 | inconclusive: -20% |  |
| C=CCOC(=O)C1=C(C)NC(SCC(=O)Nc2nccs2)=C(C#N)C1c1cccs1 (stereo not given) | inconclusive: 0.616% |  |
| COc1ccc(OC)c(NC(=O)COC(=O)CCCN=C2NS(=O)(=O)c3ccccc32)c1 |  | inconclusive: 18.4 µM [falling, partial curve, poor fit] |
| COc1ccccc1C(CNc1ccc(S(=O)(=O)N2CCCC2)cc1[N+](=O)[O-])N(C)C (stereo not given) | inconclusive: 3.45% |  |
| Cc1ccc(NC(=O)NNC(=O)Cn2nc(-c3ccccc3)c(-c3ccccc3)c(C#N)c2=O)cc1 | inconclusive: -7.51% |  |
| COc1cc2c(cc1OC)C1(Nc3c-2c(-c2ccccc2)nn3-c2ccccc2)C(=O)Nc2ccccc21 (stereo not given) | inactive |  |

(next part)

| SMILES | activity change, negative = inhibition | Potency |
| --- | --- | --- |
| COc1cccc(-n2c(SCC(=O)NCc3ccco3)nnc2-c2c[nH]c3ccccc23)c1 |  | inconclusive: 16.4 µM [falling, partial curve, poor fit] |
| CCC(=O)N(c1ccc(C(=O)O)cc1)c1nc(-c2ccc(OC)cc2)c(C)s1 |  | inconclusive: 12.6 µM [falling, partial curve, poor fit] |
| C=CCc1cc(/C=C2/NC(=S)NC2=O)cc(OC)c1O |  | inconclusive: 20 µM [falling, single point] |
| CC1CCCN(C(=O)COc2ccc(-c3ccccc3)cc2)C1 (stereo not given) | inconclusive: 6.55% |  |
| Cc1ccc(N=Nc2ccc(O)cc2)c(Br)c1 | inconclusive: 0.605% |  |
| CCC(C(=O)NC1CCCC1)N(Cc1ccco1)C(=O)CNS(=O)(=O)c1ccccc1 (stereo not given) | inactive |  |
| CC(C)(C)C(=O)Nc1nc(C2CCCN2S(=O)(=O)c2ccc(Cl)cc2)cs1 (stereo not given) |  | inconclusive: 5.17 µM [rising, full curve, poor fit] |
| CC1CC2=C(CC1/C=N/NC(N)=S)C(C)(C)CCC2 (stereo not given) |  | inconclusive: 29.1 µM [falling, single point] |
| CCOc1ccc(CN(C(=O)c2cccs2)C2CCS(=O)(=O)C2)cc1 (stereo not given) | inactive |  |
| CCOC(=O)c1c(NC(=S)N2CCN(C)CC2)sc2c1CCN(C(=O)OCC)C2 | inconclusive: -8.81% |  |
| CCOC(=O)c1ccc(N2CN(C3CCCCC3)CNC2=S)cc1 | inconclusive: 0.411% |  |
| CC(=O)c1ccc(NC(=O)c2c(C)nn(-c3ccccc3)c2Cl)cc1 | inactive |  |
| Nc1c(C(=O)O)sc2nc3c(cc12)CCCC3 | inactive |  |
| Cc1ccc(C(=O)CSc2nc3c([nH]2)c(=O)n(C)c(=O)n3C)cc1 | inconclusive: 9.16% |  |
| CCC1Oc2nc(SC)nnc2-c2ccccc2N1C(=O)c1ccccc1 (stereo not given) |  | inconclusive: 18.4 µM [falling, partial curve] |
| O=C(Nc1ccc([N+](=O)[O-])cc1)c1cn(-c2ccccc2)nc1-c1cc2ccccc2o1 | inactive |  |
| CC(=O)c1ccc(N2CCC(C(=O)O)CC2)cc1 | inconclusive: -0.323% |  |
| CCOC(=O)CCc1c(C)c2ccc3c(c2oc1=O)CN(CCCO)CO3 | inconclusive: 4.97% |  |
| Cc1[nH]cnc1C(=O)N/N=C/c1ccc([N+](=O)[O-])s1 | inconclusive: -19.1% |  |
| NC(=O)[C@@H]1CC2(CC(c3cccc(NC(=O)COc4ccc(Cl)cc4)c3)=NO2)CN1C(=O)COc1ccc(Cl)cc1 (stereo not given in full) |  | inconclusive: 12.6 µM [falling, single point] |
| Nc1[nH]c(N=NC(=O)c2ccc(Cl)cc2)c2ccccc12 |  | inconclusive: 5.17 µM [falling, single point] |
| O=c1c(-c2cccc([N+](=O)[O-])c2)[n+]([O-])c2ccccc2n1O | inconclusive: -0.692% |  |
| O=C1[C@@H](Oc2ccccc2)[C@@H](c2ccncc2)N1c1ccncc1 | inactive |  |
| CCCCOc1ccc(CONS(=O)(=O)c2ccc(NC(C)=O)cc2)cc1Cl | inconclusive: 1.01% |  |
| CCn1cc(C(=O)N2CCCC2)c(=O)c2cc(S(=O)(=O)N(C)C)ccc21 | inconclusive: 34.1% |  |
| COc1ccc([C@H]2CC(=O)C=C(c3cccc(Cl)c3O)C2)cc1OC | inconclusive: 11.4% |  |
| CC(C)n1cnc2cc(NCc3ccccn3)ccc21 |  | inconclusive: 29.1 µM [falling, single point] |

| SMILES | activity change, negative = inhibition | Potency |
| --- | --- | --- |
| CCN(CC)c1ccc(/C=N/NC(=S)NCc2ccc(OC)cc2)cc1 | inconclusive: 1.68% |  |
| Cc1cc(C(=O)NNC(=O)c2cccc(Cl)c2)no1 |  | inconclusive: 22.4 µM [falling, single point] |
| COCCOC(=O)c1c(C)oc2ccc(OCc3cc(C(=O)OC)oc3C)cc12 | inactive |  |
| CSc1ncc(-c2ccc(Cl)cc2)[nH]1 | inactive |  |
| COc1cc(C(=O)NCc2nnc(SCC(=O)N3CCc4ccccc43)o2)cc(OC)c1OC | inconclusive: 5.99% |  |
| O=C(C[C@H]1C/C=C\C[C@H](Cc2ccc(F)cc2)C(=O)O[C@@H](c2ccccc2)CNC1=O)N[C@H](CO)Cc1ccccc1 | inactive |  |
| Cc1cccn2c3c(c(=O)nc12)C(c1ccc(F)cc1)CC(=O)N3 (stereo not given) |  | inconclusive: 20 µM [falling, single point] |
| N#Cc1ccc(C23CC4CC(CC(C4)C2)C3)[nH]c1=O | inactive |  |
| COc1cc(-c2n[nH]c(=S)n2-c2cccc(C(F)(F)F)c2)cc(OC)c1OC | inconclusive: 10.4% |  |
| O=S(=O)(NCC(c1ccco1)N1CCN(c2ccccc2)CC1)c1ccccc1 (stereo not given) | inconclusive: 9.71% |  |
| COc1ccc(S(=O)(=O)NCC(c2ccc(C)cc2)N2CCN(C)CC2)cc1 (stereo not given) | inconclusive: -0.365% |  |
| Cc1ccc(C(=O)N2CCN(c3cccc(Cl)c3)CC2)cc1C | inconclusive: 5.4% |  |
| COc1cc(SC)ccc1C(=O)OCC(=O)N1CC(=O)Nc2ccccc21 | inconclusive: 0.282% |  |
| CCN(Cc1ccncc1)Cc1c(O)ccc2ccccc12 | inconclusive: -11.9% |  |
| C/C(=N\NC(N)=S)c1ccccc1 | inconclusive: -16.4% |  |
| Cc1ccc([N+](=O)[O-])cc1NC(=O)C1CCN(S(C)(=O)=O)CC1 | inconclusive: 9.54% |  |
| CC1CCCCN1C(=S)Nc1ccc(OC(F)F)cc1 (stereo not given) | inconclusive: 9.97% |  |
| N/C(=N\OC(=O)CSc1ccccc1)c1ccc([N+](=O)[O-])cc1 | inactive |  |
| Cc1c(Cl)cccc1NC(=O)CCCn1nc([N+](=O)[O-])cc1C | inactive |  |
| CCOc1ccc(C2=Nn3c(CC)nnc3SC2)cc1 | inactive |  |
| O=C1C(=O)c2ccccc2C(O)=C1c1ccccc1F | inactive |  |
| Cc1ccc(NC(=O)c2ccc(S(=O)(=O)N3CCCCC3)cc2)cc1 | inconclusive: 12.4% |  |
| COc1ccccc1NC(=O)c1c(Nc2ccccc2C)sc(C(=O)Nc2cccc(Cl)c2)c1N | inconclusive: 9.87% |  |
| COc1ccc(CCNc2nc(-c3cccc(NC(C)=O)c3)cs2)cc1OC | inconclusive: -19.7% |  |
| c1ccc(Cn2c(NCc3ccncc3)nc3ccccc32)cc1 | inconclusive: -7.44% |  |
| CC(/C=N/NC(=O)c1cccc([N+](=O)[O-])c1)=C\c1ccccc1 |  | inconclusive: 3.16 µM [rising, full curve, poor fit] |
